Results are given in words; binding and its absence hold for the method and conditions named. Binding seen in cells or lysates may run through a third protein. A result given as binding can be weak or reduced; the word gives no strength. Tags and fused reporters may be left off the sequences shown.
Target: ZDHHC2 C‐terminal fragment (GST pull‐down assay)
Experiment: pull-down; GST fusion protein (E. coli BL21, pET‐GST) captured overnight at 4 °C on glutathione–agarose beads, then mixed with cell lysate of the target protein overnight at 4 °C; SDS-PAGE; only the target purified

binding: binds
B1: recombinant USP19 (GST pull‐down assays) (enzyme, UniProt O94966 1-1318)
chain: MSGGASATGPRRGPPGLEDTTSKKKQKDRANQESKDGDPRKETGSRYVAQAGLEPLASGDPSASASHAAGITGSRHRTRLFFPSSSGSASTPQEEQTKEGACEDPHDLLATPTPELLLDWRQSAEEVIVKLRVGVGPLQLEDVDAAFTDTDCVVRFAGGQQWGGVFYAEIKSSCAKVQTRKGSLLHLTLPKKVPMLTWPSLLVEADEQLCIPPLNSQTCLLGSEENLAPLAGEKAVPPGNDPVSPAMVRSRNPGKDDCAKEEMAVAADAATLVDEPESMVNLAFVKNDSYEKGPDSVVVHVYVKEICRDTSRVLFREQDFTLIFQTRDGNFLRLHPGCGPHTTFRWQVKLRNLIEPEQCTFCFTASRIDICLRKRQSQRWGGLEAPAARVGGAKVAVPTGPTPLDSTPPGGAPHPLTGQEEARAVEKDKSKARSEDTGLDSVATRTPMEHVTPKPETHLASPKPTCMVPPMPHSPVSGDSVEEEEEEEKKVCLPGFTGLVNLGNTCFMNSVIQSLSNTRELRDFFHDRSFEAEINYNNPLGTGGRLAIGFAVLLRALWKGTHHAFQPSKLKAIVASKASQFTGYAQHDAQEFMAFLLDGLHEDLNRIQNKPYTETVDSDGRPDEVVAEEAWQRHKMRNDSFIVDLFQGQYKSKLVCPVCAKVSITFDPFLYLPVPLPQKQKVLPVFYFAREPHSKPIKFLVSVSKENSTASEVLDSLSQSVHVKPENLRLAEVIKNRFHRVFLPSHSLDTVSPSDTLLCFELLSSELAKERVVVLEVQQRPQVPSVPISKCAACQRKQQSEDEKLKRCTRCYRVGYCNQLCQKTHWPDHKGLCRPENIGYPFLVSVPASRLTYARLAQLLEGYARYSVSVFQPPFQPGRMALESQSPGCTTLLSTGSLEAGDSERDPIQPPELQLVTPMAEGDTGLPRVWAAPDRGPVPSTSGISSEMLASGPIEVGSLPAGERVSRPEAAVPGYQHPSEAMNAHTPQFFIYKIDSSNREQRLEDKGDTPLELGDDCSLALVWRNNERLQEFVLVASKELECAEDPGSAGEAARAGHFTLDQCLNLFTRPEVLAPEEAWYCPQCKQHREASKQLLLWRLPNVLIVQLKRFSFRSFIWRDKINDLVEFPVRNLDLSKFCIGQKEEQLPSYDLYAVINHYGGMIGGHYTACARLPNDRSSQRSDVGWRLFDDSTVTTVDESQVVTRYAYVLFYRRRNSPVERPPRAGHSEHHPDLGPAAEAAASQASRIWQELEAEEEPVPEGSGPLGPWGPQDWVGPLPRGPTTPDEGCLRYFVLGTVAALVALVLNVFYPLVSQSRWR

— article PMC12767118
